Measurements: publication PMC10816821
These are yes or no findings as the source states them, for the method shown. Binding seen in cells or lysates may run through a third protein. A result given as binding can be weak or reduced; the word gives no strength.

Biological target: ASC (pig (endogenous in PAMs))
Test: co-IP; PAMs lysed in RIPA buffer, precleared with protein A/G-agarose, primary antibody overnight at 4 °C, SDS-PAGE and blot; cells untreated, stimulated with APP, or pretreated with naringin (NAR) before APP; the precipitating antibody is not named

binding: binds
B1: Caspase-1 (protein, UniProt Q9N2I1 1-404)
chain: MADKVLKEKRRLFVRSVAMGTINGLLDELLETRVLNQEEVEIVRGENATVMDKARALIDSVIRKGPQACQICINHICGDDPHLAGVLELSTGSQSGKCLTVQESQAVVPPFPAPQTVQDNPVKPASSEPRGSLKLCPPDIAQRLWKEKSAEIYPIMGKSIRTRLALIICNTEFENLPRRDGADVDIRDMKILLEDLGYSVDVRENLTASDMAIELKAFAARPEHKSSDSTFLVLMSHGIQAGICGKKYSEEVPDVLEVNTVFQILNTLNCPSLKDKPKVIIIQACRGEKQGVVWIKDSVGPSGNSSLLAAEDFEYDAIKKAHIEKDFIAFCSSTPDNVSWRHPLLGSLFIIKLIKILQEHAWSCGLEEIFRKVRFSFELADGRAQMPTAERVTLTRSFYLFPGH
